Experimental data as given in US20040234956A1 (OREGON HEALTH AND SCIENCE UNIVERSITY, published 2004).

Molecular target: T1, APOBEC3G-Myc fusion protein (human, UniProt Q9HC16 1-384)
T1 construct: Human APOBEC3G coding region cloned from H9 cells into pcDNA3.1/Myc-His C; It was expressed in 293T/COS7 cells and used in cell extracts or adsorbed on Ni-NTA agarose; also called APOBEC3G-Myc-His
Test: co-immunoprecipitation with 9E10 anti-Myc, Vif immunoblot

B1: Vif(Δ10) deletion mutant (other)
chain: MENRWQVMIVWQVDRMRINTWKRLVKHHMYISRKAKDWFYRHHYESTNPKISSEVHIPLGDAKLVITTYWGLHTGERDWHLGQGVSIEWRKKRYSTQVDPDLADQLIHLHAAVSPRCEYQAGHNKVGSLQYLALAALIKPKQIKPPLPSVRKLTEDRWNKPQKTKGHRGSHTMNGH
notes: also called Vif(?10)
  binding result: no binding
